# Laboratory results taken from PMC11352514.
# No constants are given. Whether binding was seen depends on the method and setting. Binding seen in cells or lysates may run through a third protein. Some entries that bind do so weakly or less than the wild type. Sequences can lack the tags named with a protein.
# Molecular target: T1, Myc-mouse Cmtm3 (CKLF-like MARVEL transmembrane domain-containing 3) (mouse) (UniProt Q99LJ5)
# T1 sequence: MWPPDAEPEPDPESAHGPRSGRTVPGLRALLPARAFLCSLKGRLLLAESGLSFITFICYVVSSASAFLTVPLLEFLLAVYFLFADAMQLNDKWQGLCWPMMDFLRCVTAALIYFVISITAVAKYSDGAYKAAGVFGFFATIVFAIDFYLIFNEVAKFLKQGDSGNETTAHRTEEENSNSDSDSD
# Assay: co-IP; HEK 293 cells co-transfected with HA-p53 and Myc-Cmtm3, 48 h; whole-cell lysates incubated with anti-Myc overnight at 4 °C, protein A-Sepharose beads 2 h at 4 °C; western blot with anti-HA; IgG antibody as control
substance,measurement,value
HA-human p53 (from UniProt P04637 1-393),binding,binds
